Laboratory results: US8598118B2, “Hepatocyte growth factor mimics as therapeutic agents” (Washington State University, priority 2011, dated 2013)
“And” between values parts separate entries of the source, which are not always exact repeats. Equal values may be shown once. “Also recorded” adds a separate entry of the source. Part of at least one peptide drawing is inferred or uncertain, most often the ends. Where a SMILES comes first, the peptide text is derived from it. [ ]: non-standard residue; d: D form. The star is where a group is joined. Hexanoyl = CCCCCC(=O)*; Ahx = NCCCCCC(=O)O

Sequences of proteins named here, by UniProt entry; tags and fusion partners are left off. Residues count along the entry.
UniProt P97523, 25-1382: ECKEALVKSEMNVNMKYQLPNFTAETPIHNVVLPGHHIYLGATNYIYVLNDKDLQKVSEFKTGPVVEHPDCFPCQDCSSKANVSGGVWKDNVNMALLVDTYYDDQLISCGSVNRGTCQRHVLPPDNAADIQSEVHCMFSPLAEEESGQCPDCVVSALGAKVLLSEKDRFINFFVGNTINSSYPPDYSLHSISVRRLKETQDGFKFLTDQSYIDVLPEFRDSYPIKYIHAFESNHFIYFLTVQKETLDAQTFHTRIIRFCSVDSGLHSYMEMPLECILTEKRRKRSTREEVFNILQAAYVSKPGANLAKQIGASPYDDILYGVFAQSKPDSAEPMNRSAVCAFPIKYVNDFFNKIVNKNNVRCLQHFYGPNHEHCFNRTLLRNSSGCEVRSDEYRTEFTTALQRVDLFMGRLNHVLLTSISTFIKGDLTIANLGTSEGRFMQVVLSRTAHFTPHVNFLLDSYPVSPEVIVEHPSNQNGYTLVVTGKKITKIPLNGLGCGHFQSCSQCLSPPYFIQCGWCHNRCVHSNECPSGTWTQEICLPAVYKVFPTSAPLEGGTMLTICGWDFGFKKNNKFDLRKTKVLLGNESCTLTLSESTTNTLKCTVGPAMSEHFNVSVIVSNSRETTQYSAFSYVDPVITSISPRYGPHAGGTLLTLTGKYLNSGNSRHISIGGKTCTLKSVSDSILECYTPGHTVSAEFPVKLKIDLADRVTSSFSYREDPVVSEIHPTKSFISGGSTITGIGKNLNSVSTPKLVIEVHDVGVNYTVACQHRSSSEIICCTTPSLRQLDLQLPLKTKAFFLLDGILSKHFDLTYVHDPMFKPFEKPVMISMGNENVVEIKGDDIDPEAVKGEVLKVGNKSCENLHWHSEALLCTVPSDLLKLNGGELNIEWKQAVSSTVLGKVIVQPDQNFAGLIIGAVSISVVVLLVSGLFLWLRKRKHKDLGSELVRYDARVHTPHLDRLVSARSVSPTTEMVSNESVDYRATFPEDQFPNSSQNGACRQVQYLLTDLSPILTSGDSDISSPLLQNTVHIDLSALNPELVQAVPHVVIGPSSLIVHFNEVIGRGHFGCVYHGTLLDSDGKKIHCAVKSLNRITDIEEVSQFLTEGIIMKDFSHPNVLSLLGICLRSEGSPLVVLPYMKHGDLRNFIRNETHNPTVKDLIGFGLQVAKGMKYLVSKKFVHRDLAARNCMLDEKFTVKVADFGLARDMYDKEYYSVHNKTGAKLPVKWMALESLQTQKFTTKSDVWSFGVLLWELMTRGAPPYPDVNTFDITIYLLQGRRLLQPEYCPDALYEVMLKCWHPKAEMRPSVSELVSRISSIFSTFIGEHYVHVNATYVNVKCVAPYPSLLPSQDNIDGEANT

How the values were obtained:
[1] = test system: Male Sprague-Dawley rats; test: Morris water maze, scopolamine amnesia model (Example 1); assay type: in vivo, rat; details: 8 days; for water maze escape latency, reversal of scopolamine deficits: daily
[2] = test system: Aged rats; test: Water maze, aged rat model; assay type: in vivo; details: oral Dihexa 2 mg/kg/day, 8 day test period, vs untreated controls
[3] = test system: hippocampal neurons; test: Spinogenesis in mRFP-β-actin transfected dissociated hippocampal neurons; assay type: cell-based, rat; details: 10^−12 M, 5 day treatment, vs vehicle
Procedure: Hippocampal neurons (2×10^5 cells per square cm) were cultured from P1 Sprague Dawley rats on plates coated with poly-L-lysine from Sigma (St. Louis, Mo.; molecular weight 300,000). Hippocampal neurons were maintained in Neurobasal A media from Invitrogen (Carlsbad, Calif.) supplemented with B27 from Invitrogen, 0.5 mM L-glutamine, and […] cytosine-D-arabinofuranoside from Sigma added at 2 days in vitro. Hippocampal neurons were then cultured a further 3-7 days, at which time they were either transfected or treated with various pharmacological reagents as described in (Wayman, Davare et al. 2008).
Neurons were transfected with mRFP-β-actin on day in vitro 6 (DIV6) using LipofectAMINE™ 2000 (Invitrogen) according to the manufacturer's protocol. This protocol yielded the desired 3-5% transfection efficiency thus enabling the visualization of individual neurons. […] Slides were dried for at least 20 hours at 4° C. and fluorescent images were obtained with Slidebook 4.2 Digital Microscopy Software driving an Olympus IX81 inverted confocal microscope with a 60× oil immersion lens, NA 1.4 and resolution 0.280 μm Dendritic spine density was measured on primary and secondary dendrites at a distance of at least 150 μm from the soma. Five 50 μm long segments of dendrite from at least 10 neurons per data point were analyzed for each data point reported. […]

[4] = test system: hippocampal neurons; test: Whole-cell recordings of AMPA-mediated mEPSCs; assay type: cell-based, rat
[5] = test system: c-Met receptor; test: c-Met phosphorylation in acute adult rat hippocampal slices; assay type: cell-based; details: 30 minutes
Description: Adult Sprague-Dawley rats (250 g+) obtained from Harlan Laboratories (Ca, USA) were anesthetized with isofluorane (Vet One™, MWI, Meridian, Id., USA) and decapitated. The brain was rapidly removed and placed into ice-chilled artificial cerebrospinal fluid (aCSF) for approximately 30 s. Both hemispheres were separated by a mid-saggital cut and both hippocampi removed. Slices were sectioned cross- and length-wise (400 μm) to ensure penetrability of the drug, using a McIlwain tissue chopper (Brinkmann, Gomshall, UK) and transferred to a gassed (95% O2/5% CO2) incubation chamber containing aCSF for 90 minutes at room temperature. […]
Protein concentration of the samples was quantified using the BCA method (Pierce, Rockford, Ill.) following the manufacturers protocol. […]

[6] = test system: c-Met; test: Augmentation of HGF-dependent c-Met phosphorylation in HEK293 cells; assay type: cell-based, human; details: HGF+/−Dihexa, 30 minutes
[7] = target: T1, c-Met receptor (Rattus norvegicus, UniProt P97523); test: Effect of c-Met knock-down (shMet) on spinogenesis in hippocampal neurons; assay type: cell-based; details: 10^−12 M, 48 hours
T1 construct: Dissociated hippocampal neurons were transfected with mRFP-β-actin and shMet RNA; endogenous in cells; host or cells: dissociated hippocampal neurons from P1-2 Sprague Dawley rats
Description: Neurons were transfected with mRFP-β-actin on day in vitro 6 (DIV6) using LipofectAMINE™ 2000 (Invitrogen) according to the manufacturer's protocol. This protocol yielded the desired 3-5% transfection efficiency thus enabling the visualization of individual neurons. Higher efficiencies obscured the dendritic arbor of individual neurons. Expression of fluorescently tagged actin allowed clear visualization of dendritic spines, as dendritic spines are enriched in actin. On DIV7 the cells were treated with vehicle (H20) or peptides (as described in the text) added to media. […] Slides were dried for at least 20 hours at 4° C. and fluorescent images were obtained with Slidebook 4.2 Digital Microscopy Software driving an Olympus IX81 inverted confocal microscope with a 60× oil immersion lens, NA 1.4 and resolution 0.280 μm Dendritic spine density was measured on primary and secondary dendrites at a distance of at least 150 μm from the soma. Five 50 μm long segments of dendrite from at least 10 neurons per data point were analyzed for each data point reported. […] Dendrite length was determined using the National Institutes of Health's Image J 1.41o program (NIH, Bethesda, Md.) and the neurite tracing program Neuron J (Meijering, Jacob et al. 2004) Spines were manually counted. […]

[8] = test system: Male Sprague-Dawley rats; test: Morris water maze with the HGF antagonist Hinge (Example 2); details: scopolamine icv pretreated rats; agents 300 pmol icv

In the case of CCCCCC(=O)N[C@@H](Cc1ccc(O)cc1)C(=O)N[C@H](C(=O)NCCCCCC(N)=O)[C@@H](C)CC [Dihexa, N-hexanoic-Tyr-Ile-(6)-aminohexanoic amide] (Hexanoyl-Tyr-Ile-[Ahx]-NH2), the “water maze escape latency, reversal of scopolamine deficits” value ([1]; Dihexa ICV 10 pmoles (low dose)) is reported as “not 10 pmoles reversed scopolamine-dependent learning deficits”, the “water maze escape latency, reversal of scopolamine deficits” value ([1]; Dihexa ICV 100 pmoles (high dose)) is reported as “reversed scopolamine-dependent learning deficits; also recorded: completely overcome the scopolamine deficits” and the “water maze performance, reversal of scopolamine deficits” value ([1]; Dihexa orally 2 mg/kg/day (high dose), 2 mg/kg/day) is reported as “no different than controls; also recorded: completely overcome the scopolamine deficits”. The “water maze performance of aged rats” value [2] was “preformed significantly better in the water maze than untreated rats; also recorded: performed significantly better than untreated controls”, the “fold increase in the number of spines” value [3] was roughly 3 fold and the “fold increase over control mEPSC frequency” value ([4]; 10-12 M, 5 days) was 1.6 fold. For the same molecule, the “mean frequency of mEPSCs” value ([4]; 10^−12 M, 5 days (Example 2)) was 6.75±0.99 and 8.25±0.56, the “c-Met phosphorylation vs control (aCSF) slices” value ([5]; Dihexa 10^−10 M (saturating)) was “increased c-Met phosphorylation” and the “c-Met phosphorylation vs control (aCSF) slices” value ([5]; Dihexa 10^−12 M (non-saturating)) was “not statistically different from control treated slices”. For the same molecule, the “augmentation of HGF activation of c-Met by phosphorylation” value [6] was “dramatically augment the ability of HGF to activate c-Met”, the “mean spine numbers per 50 μm dendrite length” value ([7]; neurons transfected with mRFP-β-actin alone) was 21.8 and the “mean spine numbers per 50 μm dendrite length” value ([7]; neurons transfected with mRFP-β-actin and shMet) was 12.0. For the same molecule, the “mean latency to find the pedestal, final day of training (day 8)” value [8] was 62.3 s.
